About 5,500 (1.4%) of roughly 400,000 compounds were called active. The inconclusive results got no clear call from the source; some entries with a clear call stand among them for comparison. The call rests on the fitted dose curve; in most records, active means well fitted cell-killing curve with a large enough effect; inconclusive means small, poorly fitted or top-dose-only effect, or effect the other way; inactive means flat fitted curve, though single readings scatter. Where the call is inconclusive, the potency comes from a doubtful curve fit.
Experiment: qHTS assay for MDR1-selective chemotherapeutics: Primary screen using the parental adenocarcinoma cell KB-3-1; further: nearly all actives have a fitted effect of over 60% in size
Conditions: KB-3-1 viability, CellTiter-Glo ATP luminescence, 72 h; activity change, negative = cytotoxic: at 46.1 µM (top of the series)
Procedure, shortened: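 Here the drug-naive KB-3-1 line serves as comparator for MDR sub-line selectivity; cells received compound titrations, 72 h at 37 °C, then CellTiter-Glo readout.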
On the % scale 0 is the no-effect control and ±100 the full control effect; potency means the concentration at half of the fitted maximal effect.

Row | Compound | Potency | activity change, negative = cytotoxic
1 | O=C(OCn1ncc(Cl)c(Cl)c1=O)c1ccccc1Cl | active: 3.66 µM | –
2 | CCOC(=O)N1CCC(NC(=O)c2ccc3c(c2)N(Cc2cc(C)ccc2C)C(=O)c2ccccc2S3=O)CC1 (configuration not stated) | inconclusive: 20.6 µM [cytotoxic, partial curve, poor fit] | –
3 | C=C1C=C(C)n2ncc(C(=O)Nc3ccccc3C(=O)OC)c2N1 | – | inconclusive: 35.3%
4 | CCOC(=O)c1c(NC(=O)/C=C\C(=O)O)sc(C)c1-c1ccccc1 | – | inactive: -7.37%
5 | CCCn1cnc2c(SCc3ccccc3)nc(N)nc21 | inconclusive: 3.66 µM [rising, full curve] | –
6 | CCCn1c(SCC(=O)Nc2cccc(S(=O)(=O)NC3=NCCCCC3)c2)nc2ccccc2c1=O | inconclusive: 23.1 µM [cytotoxic, single point] | –
7 | S=C1NCCc2ccc(Cl)cc2C1c1ccccc1Cl (configuration not stated) | – | inactive: -7.8%
8 | O=C(c1ccccc1F)N(Cc1cccs1)C1CCS(=O)(=O)C1 (configuration not stated) | – | inactive: 4.77%
9 | Cc1noc(C)c1CSCC(=O)N(C)CC(=O)Nc1ccc(Cl)c(Cl)c1 | – | inactive: -25.8%
10 | CC(C)(COC(=O)c1ccccc1)N1CC2CCC(C1)O2 | – | inactive: -2.21%
11 | CN1NC(=O)CC1c1ccccc1 (configuration not stated) | – | inconclusive: 33%
12 | Cc1cc2nc(C)n(CCCNC(=O)Nc3cccc4ccccc34)c2cc1C | inconclusive: 13 µM [cytotoxic, partial curve] | –
13 | CCC1Sc2ccccc2N(CC(=O)NCc2ccccc2OC)C1=O (configuration not stated) | – | inactive: 1.07%
14 | CC(C)(C)OC(=O)n1cc(CCO)c2ccccc21 | inconclusive: 14.6 µM [rising, partial curve, poor fit] | –
15 | COc1ccc(-c2nc(SCC(=O)c3ccc(OC)c(Br)c3)n[nH]2)cc1 | inconclusive: 29.1 µM [cytotoxic, single point] | –
16 | CCC(C)n1c(=O)c(C(=O)Nc2ccccc2S(N)(=O)=O)c(O)c2ccccc21 (configuration not stated) | active: 16.4 µM | –
17 | COc1ccc(NC(=O)COC(=O)CNC(=O)C2CCCCC2)cc1OC | inconclusive: 10.3 µM [rising, partial curve] | –
18 | CC(C)C[C@H]1CN([C@@H](Cc2ccc(O)cc2)CN2CCC[C@@H]2CN2C(=S)NC[C@@H]2Cc2ccccc2)C(=S)N1CC1CCCCC1 | inconclusive: 29.1 µM [cytotoxic, single point] | –
19 | O=C(c1ccc(C(=O)N2CCCc3ccccc32)s1)N1CCCc2ccccc21 | inconclusive: 10.3 µM [cytotoxic, partial curve] | –
20 | O=CNC1CCCc2c1[nH]c1ccc(Cl)cc21 (configuration not stated) | inconclusive: 16.4 µM [cytotoxic, single point] | –
21 | COc1cccc(N2[C@@H](CC(C)=O)c3ccc(/C=C/C(C)=O)cc3S2(=O)=O)c1 | inconclusive: 18.4 µM [cytotoxic, single point] | –

Row | Compound | Potency | activity change, negative = cytotoxic
22 | Cc1cc(C(=O)N/N=C\c2cc(C(C)(C)C)ccc2O)n[nH]1 | inconclusive: 29.1 µM [cytotoxic, single point] | –
23 | COc1ccc(-c2nn(-c3ccccc3)cc2/C=C/C(=O)O)cc1[N+](=O)[O-] | inconclusive: 29.1 µM [cytotoxic, single point] | –
24 | Cc1ccc(C(C(=O)NCc2ccc(F)cc2)N(Cc2ccco2)C(=O)c2snc(C(N)=O)c2N)o1 (configuration not stated) | – | inactive: -8.01%
25 | CCCCCCCCC[n+]1cccc2c3ccccc3ccc21 | inconclusive: 0.651 µM [cytotoxic, full curve, poor fit] | –
26 | CCc1ccc(S(=O)(=O)Nc2cccc(-c3ccc(N4CCC(C)CC4)nn3)c2)s1 | inconclusive: 18.4 µM [cytotoxic, single point] | –
27 | CC(C)(C)OC(=O)N1CCC(c2c(C(=O)NCc3ccco3)cnn2-c2ccccc2)CC1 | – | inactive: 9.94%
28 | CC1=C(C(=O)N2CCCCCC2)CC(CC(=O)NC(c2ccccc2)c2ccccc2)C(=O)N1CCC1=CCCCC1 (configuration not stated) | inconclusive: 20.6 µM [cytotoxic, single point] | –
29 | CCn1c(=O)cc(SCC(=O)NCc2ccccc2OC)c2ccccc21 | inconclusive: 18.4 µM [cytotoxic, partial curve, poor fit] | –
30 | O=C(N/N=C/c1ccco1)c1cc(-c2ccncc2)nc2ccccc12 | inconclusive: 16.4 µM [cytotoxic, partial curve] | –
31 | COc1cc(CCC(=O)Nc2ccc(C)c(S(=O)(=O)N3CCCCCC3)c2)cc(OC)c1OC | active: 6.51 µM | –
32 | O=C(c1cc(-c2ccc(Cl)cc2)nc2ccccc12)N1CCOCC1 | inconclusive: 23.1 µM [rising, partial curve, poor fit] | –
33 | Cn1c(=O)n(C)c2cc([N+](=O)[O-])c(N3CCN(S(=O)(=O)c4ccccc4)CC3)cc21 | inconclusive: 23.1 µM [cytotoxic, partial curve] | –
34 | CCN(CC)c1cc(C)c(/C=C/c2ccnc3ccccc23)cc1C | active: 11.6 µM | –
35 | CCc1ccccc1Oc1nc(NC(C)C)nc2ccsc12 | – | inactive: 0%
36 | Cc1ccc(-c2nnc(NCc3ccccc3)c3ccccc23)cc1 | inconclusive: 20.6 µM [cytotoxic, single point] | –
37 | Cc1nn(-c2ccc(F)cc2)c(-n2cccc2)c1C(=O)NCCCN1CCN(c2cccc(Cl)c2)CC1 | inconclusive: 0.517 µM [cytotoxic, full curve, poor fit] | –
38 | CCOC(=O)c1sc2ccccc2c1S(=O)(=O)N1CCN(c2cccc(OC)c2)CC1 | inconclusive: 20.6 µM [cytotoxic, single point] | –
39 | Cc1cc2sc3ccccc3c(=O)c2c(C)c1O | inconclusive: 16.4 µM [cytotoxic, partial curve, poor fit] | –
40 | COc1cccc(C(=O)C2CCCN(Cc3cccc(-n4nc(C)cc4C)c3)C2)c1 (configuration not stated) | inconclusive: 0.0065 µM [cytotoxic, full curve, poor fit] | –
41 | O=C(C[n+]1cccc2cc(Cl)ccc21)c1ccc2ccccc2c1 | inconclusive: 20.6 µM [cytotoxic, single point] | –
42 | CCOc1ccc(NC(=O)c2ccc(N3CC4CC(C3)c3cccc(=O)n3C4)c(NC(=O)c3cccnc3)c2)cc1 (configuration not stated) | inconclusive: 4.11 µM [rising, partial curve, poor fit] | –

2 of these compounds in another layout:
COc1ccc(-c2nn(-c3ccccc3)cc2/C=C/C(=O)O)cc1[N+](=O)[O-]
  Potency: inconclusive: 29.1 µM [cytotoxic, single point]
Cc1ccc(C(C(=O)NCc2ccc(F)cc2)N(Cc2ccco2)C(=O)c2snc(C(N)=O)c2N)o1 (configuration not stated)
  activity change, negative = cytotoxic: inactive: -8.01%
